From patent US8501755B2, “Tetrahydropyridothienopyrimidine compounds and methods of use thereof” (Bayer Intellectual Property GmbH, priority 2006, dated 2013)
Some of these results come from one statement about several compounds together. At least one compound was matched to its structure with a doubt left.

How the values were obtained:
Type in all cases: cell-based
A431 cells = experiment: In vitro tumor cell proliferation assay (Cell Titer-Glo) in A431 cells; conditions: A431 human epidermoid carcinoma overexpressing HER1; 72 hours exposure; read-out: IC50, activities in A431 cell lines
Source text: (§1) The tumor cell proliferation assay used to test the compounds of the present invention involves a readout called Cell Titer-Glow® Luminescent Cell Viability Assay developed by Promega® (Cunningham, BA “A Growing Issue: Cell Proliferation Assays, Modern kits ease quantification of cell growth” The Scientist 2001, 15(13), 26, and Crouch, S P et al., “The use of ATP bioluminescence as a measure of cell proliferation and cytotoxicity” Journal of Immunological Methods 1993, 160, 81-88), that measures inhibition of cell proliferation. Generation of a luminescent signal corresponds to the amount of ATP present, which is directly proportional to the number of metabolically active (proliferating) cells. A431 cells [human epidermoid carcinoma, ATCC # HTB-20, overexpressing HER1 (EGFR, ErbB1)] and N87 [human gastric carcinoma, ATCC # CRL-1555, overexpressing HER2 (ErbB2) and HER1 (EGFR, ErbB1)] were plated at a density of 2.5×10^3 cells/well in 96 well black-clear bottom tissue culture plates in RPMI media with 10% Fetal Bovine Serum and incubated at 37° C. Twenty-four hours later, test compounds are added at a final concentration range from as high 100 μm to as low […] depend on the activities of the tested compounds in serial dilutions at a final DMSO concentration of 0.1%. Cells were incubated for 72 hours at 37° C. in complete growth media after addition of the test compound. After 72 hours of drug exposure, the plates were equilibrated to room temperature for approximately 30 min. Then, using a Promega Cell Titer Glo Luminescent® assay kit, lysis buffer containing 100 microliters of the enzyme luciferase and its substrate, luciferin mixture, was added to each well. The plates were mixed for 2 min on orbital shaker to ensure cell lysis and incubated for 10 min at room temperature to stabilize luminescence signal. The samples were read on VICTOR2 using Luminescence protocol, and analyzed with Analyze5 software to generate IC50 values.

N87 = experiment: In vitro tumor cell proliferation assay (Cell Titer-Glo) in N87 cells; conditions: N87 human gastric carcinoma overexpressing HER2 and HER1; 72 hours exposure; read-out: IC50, activities in N87 cell lines
Source text: as §1

H1975 cells = experiment: In vitro tumor cell proliferation assay (Cell Titer-Glo) in H1975 cells; conditions: H1975 human NSCLC expressing mutant HER1 (L858R,T790M); 72 hours exposure; read-out: IC50, activities in H 1975 cell lines
Source text: The tumor cell proliferation assay used to test the compounds of the present invention involves a readout called Cell Titer-Glow® Luminescent Cell Viability Assay developed by Promega® (Cunningham, BA “A Growing Issue: Cell Proliferation Assays, Modern kits ease quantification of cell growth” The Scientist 2001, 15(13), 26, and Crouch, S P et al., “The use of ATP bioluminescence as a measure of cell proliferation and cytotoxicity” Journal of Immunological Methods 1993, 160, 81-88), that measures inhibition of cell proliferation. Generation of a luminescent signal corresponds to the amount of ATP present, which is directly proportional to the number of metabolically active (proliferating) cells.
H1975 cells [human non small cell lung carcinoma, ATCC # CRL-5908, expressing mutant HER1 [(EGFR, ErbB1)(L858R,T790M] were plated at a density of 3×10^3 cells/well in 96 well black-clear bottom tissue culture plates in RPMI media with 10% Fetal Bovine Serum and incubated at 37° C. Twenty-four hours later, test compounds are added at a final concentration range from as high 10 uM to as low 64 pM depending on the activities of the tested compounds in serial dilutions at a final DMSO concentration of 0.1%. Cells were incubated for 72 hours at 37° C. in complete growth media after addition of the test compound. After 72 hours of drug exposure, the plates were equilibrated to room temperature for approximately 30 min. Then, using a Promega Cell Titer Glo Luminescent® assay kit, lysis buffer containing 100 microliters of the enzyme luciferase and its substrate, luciferin mixture, was added to each well. The plates were mixed for 2 min on orbital shaker to ensure cell lysis and incubated for 10 min at room temperature to stabilize luminescence signal. The samples were read on VICTOR2 using Luminescence protocol, and analyzed with Analyze5 software to generate IC50 values.

Q: What does the source list for “7-[(2E)-4- (dimethylamino)but-2- enoyl]-N-[1- (pyridin-2-ylmethy)-1H- indol-5-yl]-5,6,7,8- tetrahydropyrido [4′,3′:4,5]thieno[2,3- d]pyrimidin-4-amine [Example 110]”?
A: IC50 (A431 cells): < 200 nM; IC50 (N87): < 200 nM; IC50 (H1975 cells): < 200 nM

Q: `O=C(/C=C/CN1CCN(CCO)CC1)N1CCc2c(sc3ncnc(Nc4ccc(F)c(Cl)c4)c23)C1` [Example 33, 2-{4-[(2E)-4-{4-[(3-chloro-4-fluorophenyl)amino]-5,8-dihydropyrido [4′3′:4,5]thieno[2,3-d]pyrimidin-7(6H)-yl}-4-oxobut-2-en-1-yl]piperazin-1-yl}ethanol] was tested. Which IC50 (N87) did it give?
A: The IC50 was under 200 nM.

Q: For `O=C(/C=C/CN1CCCCC1)N1CCc2c(sc3ncnc(Nc4ccc(OCc5cnccn5)c(Cl)c4)c23)C1` [Example 79, N-[3-chloro-4-(pyrazin-2-ylmethoxy)phenyl]-7-[(2E)-4-piperidin-1-ylbut-2-enoyl]-5,6,7,8-tetrahydropyrido [4′3′:4,5]thieno[2,3-d]pyrimidin-4-amine], which IC50 (N87) is on record?
A: The IC50 was under 200 nM.

Q: What about the IC50 (H1975 cells) of the same compound?
A: The IC50 was 200 to 1000 nM.

Q: `CCN(C)C/C=C/C(=O)N1CCc2c(sc3ncnc(Nc4ccc5c(cnn5Cc5ccccn5)c4)c23)C1` [Example 119, 7-{(2E)-4-[ethyl(methyl)amino]but-2-enoyl}-N-[1-(pyridin-2-ylmethyl)-1H-indazol-5-yl]-5,6,7,8-tetrahydropyrido [4′,3′:4,5]thienol[2,3-d]pyrimidin-4-amine] was tested. Which IC50 (A431 cells) did it give?
A: The IC50 was 200 to 1000 nM.

Q: What about the IC50 (N87) of the same compound?
A: The IC50 was under 200 nM.

Q: And the IC50 (H1975 cells)?
A: The IC50 was 200 to 1000 nM.

Q: Which IC50 (A431 cells) does the source give for `CN(C/C=C/C(=O)N1CCc2c(sc3ncnc(Nc4ccc5c(cnn5Cc5ccccc5)c4)c23)C1)C(C)(C)C` [Example 126, N-(1-benzyl-1H-indazol-5-yl)-7-{(2E)-4-[tert-butyl(methyl)amino]but-2-enoyl}-5,6,7,8-tetrahydropyrido [4′,3′:4,5]thieno[2,3-d]pyrimidin-4-amine] here?
A: The IC50 was 200 to 1000 nM.

Q: `CC1CCCN1C/C=C/C(=O)N1CCc2c(sc3ncnc(Nc4ccc(Cl)c(Cl)c4)c23)C1` (stereo not drawn) [Example 206, N-(3,4-dichlorophenyl)-7-[(2E)-4-(2-methylpyrrolidin-l-yl)but-2-enoyl]-5,6,7,8-tetrahydropyrido [4′,3′:4,5]thieno[2,3-d]pyrimidin-4-amine] was tested. Which IC50 (A431 cells) did it give?
A: Its IC50 is under 200 nM.

Q: And the IC50 (N87)?
A: The IC50 was under 200 nM.

Q: What about the IC50 (H1975 cells) of the same compound?
A: The IC50 was under 200 nM.
